The campaign covered roughly 320,000 compounds. About 2,100 (0.66%) were called active. Inconclusive results, whose numbers are uncertain, are shown with a selection of clear calls. Calls follow the shape of the dose curve; as a rule, active = well fitted inhibition curve with a large enough effect in the signal ratio, with a control signal flat (not every such curve was filed as active); inconclusive = small, poorly fitted or top-dose-only effect, or effect the other way, or a change in a side signal; inactive = flat fitted curve, though single readings scatter; the % refers to the signal ratio. A potency beside an inconclusive call is a rough fit, not a confirmed value.
Experiment: qHTS Assay for Lipid Storage Modulators in Drosophila S3 Cells
Conditions: BODIPY lipid droplet fluorescence, 18-24 h, cells fed with added oleic acid; lipid storage change, negative = inhibition: at 46.1 µM (top of the series) unless noted
Outline: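 Laser-scanning cytometry quantifies lipid droplet accumulation (500–530 nm total intensity; droplet/cell object ratio) in oleic acid-fed (400 uM added) Drosophila S3 cells treated with a concentration series. 20 uM Triacsin C defined 100% inhibition.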
% is scaled to controls: 0 for no effect and ±100 for the full control effect; potency is read from the fitted curve at half-maximal effect.

SMILES | Potency | lipid storage change, negative = inhibition | outcome
CC(C)(C)c1ccc(NC(=O)C2=CC=CN3CCS(=O)(=O)N=C23)cc1 | inconclusive: 11.6 µM [rising, partial curve, poor fit] |  | 
Cc1cccc(Oc2ccc(S(=O)(=O)N3CCCCC3)cc2NC(=O)C2=COCCO2)c1 |  | inconclusive: -61.7% | 
Cc1nn(C)cc1C1C(C#N)=C(N)N(c2ccc(F)c([N+](=O)[O-])c2)C2=C1C(=O)CCC2 (stereo unspecified) |  | inconclusive: 3.38% | 
O=C(O)CN1C(=O)/C(=C\c2cccc(OCc3ccc(Cl)cc3Cl)c2)SC1=S | inconclusive: 0.116 µM [activator, full curve, poor fit] |  | 
COc1ccccc1N1CCN(C(=O)CNC(=O)c2ccc(Cl)cc2Cl)CC1 |  | inconclusive: 283% | 
CCOC(=O)CSc1nc2c(c(=O)n(C)c(=O)n2C)n1CCCc1ccccc1 | inconclusive: 6.51 µM [rising, single point] |  | 
Nc1nc(Nc2cccc(F)c2)nc(NCc2ccco2)c1[N+](=O)[O-] | inconclusive: 6.51 µM [activator, single point] |  | 
COCCN(C)Cc1cn(-c2ccc(F)cc2F)nc1-c1ccccc1C |  | inconclusive: -30.5% | 
CC1(C)C(=O)Nc2ccccc2N1C(=O)Cn1ncc(Cl)c(Cl)c1=O | inconclusive: 25.9 µM [falling, single point] |  | 
Cc1cc(C)cc(NC(=O)NCc2ccccn2)c1 |  | inconclusive: -11.3% | 
Cn1c(=O)cc(OCC(=O)N2CCCc3ccccc32)c2ccccc21 | inconclusive: 0.92 µM [activator, partial curve, poor fit] |  | 
CC(=O)c1ccc(N=C2SCCCN2C(=O)C2CCCC2)cc1 |  | inconclusive: -21% [cytotoxic] | 
COc1ccc(N2CC(C(=O)N3CCN(c4ccccc4OC)CC3)CC2=O)cc1 (stereo unspecified) |  | inconclusive: 76.5% | 
CN(C)c1ccc(N=Cc2nc(-c3ccccc3)oc2OC(=O)c2cccc(Br)c2)cc1 |  | inconclusive: 11.3% | 
O=C(O)CN=C(NS(=O)(=O)c1ccccc1)c1ccccc1 |  | inconclusive: 20.9% | 
Cc1cc(=O)[nH]c2ccc(S(=O)(=O)NCc3ccccc3)cc12 | inconclusive: 0.731 µM [falling, full curve, poor fit] |  | 
CC(C)OC(=O)c1ccc(N)cc1 |  | inconclusive: 27% | 
Cc1ccccc1NC(=O)CSc1nnc(CNC(=O)c2ccc3c(c2)OCO3)n1C | inconclusive: 29.1 µM [activator, single point] |  | 
O=C(O)/C=C/c1coc2ccccc2c1=O | inconclusive: 20.6 µM [activator, single point] |  | 
Cc1cc(N2CCC(C(=O)NC3CCCCC3)CC2)nc(-c2ccccc2)n1 | inconclusive: 20.6 µM [falling, single point] |  | 
CCOC(=O)c1ccc(Nc2nc(C)nc3c2nnn3Cc2ccccc2)cc1 |  | inconclusive: -78% | 
CCN(CC)CCn1c(N)nc2ccccc21 |  | inconclusive: 43.8% | 
CCN(CC(=O)NCc1ccc(Cl)cc1)C(=O)CSCC(=O)Nc1cccc(C)c1 | inconclusive: 29.1 µM [falling, single point] |  | 

A second format for part of the listing above:
SMILES	Potency	lipid storage change, negative = inhibition	outcome
Cn1c(=O)cc(OCC(=O)N2CCCc3ccccc32)c2ccccc21	inconclusive: 0.92 µM [activator, partial curve, poor fit]		
CC(=O)c1ccc(N=C2SCCCN2C(=O)C2CCCC2)cc1		inconclusive: -21% [cytotoxic]	
COc1ccc(N2CC(C(=O)N3CCN(c4ccccc4OC)CC3)CC2=O)cc1 (stereo unspecified)		inconclusive: 76.5%	

Carrying on.

SMILES | Potency | lipid storage change, negative = inhibition | outcome
COC(=O)c1ccc(C(=O)OC)c(NC(=O)CN2CCC(C)CC2)c1 | inconclusive: 29.1 µM [rising, single point] |  | 
COc1ccc(C(=O)N2CCN(CCc3ccccn3)CC2)cc1 |  | inconclusive: 19% | 
COC(=O)[C@@H](NC(=O)NC1CCCCC1C)C(C)C (stereo partly specified) |  | inactive: 11.5% | 
Cc1ccccc1OCc1nnc(SCc2nc3ccccc3c(=O)[nH]2)n1C |  | inconclusive: -25.4% | 
COc1ccc(CNC(=O)[C@H](C)NC(=O)C2CCN(C(=O)[C@@H](N)Cc3ccccc3)CC2)cc1 | inconclusive: 0.058 µM [falling, full curve, poor fit] |  | 
COC(=O)c1ccc(Cn2c(C)cc(C)[n+]2C)o1 |  | inconclusive: -154% | 
Cc1ccc(-n2c(SCC(=O)Nc3ccc4c5c(cccc35)CC4)nc(O)cc2=O)cc1 | inconclusive: 25.9 µM [activator, single point] |  | 
COc1ccc(C2=NOC(COc3ccc([N+](=O)[O-])cc3)C2)cc1 (stereo unspecified) |  | inconclusive: 20.5% | 
Cc1ccc(NC(=O)c2ccc3c(c2)[nH]c(=O)n3C(C)C)cc1 |  | inconclusive: -54.5% | 
O=C(Cn1cnc2c(nnn2Cc2ccc(F)cc2)c1=O)Nc1cccc(F)c1 |  | inconclusive: 18.8% [at 9.22 µM] | 
CC(C)(C)OC(=O)COc1cc(F)ccc1[N+](=O)[O-] | inconclusive: 0.92 µM [activator, partial curve] |  | 
CS(=O)(=O)c1ccccc1-c1nnc(NC(=O)c2ccc(S(=O)(=O)N3CCCC3)cc2)o1 |  |  | inactive [at 0.0737 µM]
CNC(=O)/C(=N\O)c1ccccc1 | inconclusive: 6.51 µM [activator, single point] |  | 
O=C(CC1C(=O)N(Cc2ccccc2)C(=S)N1CCN1CCOCC1)Nc1ccc(F)cc1 (stereo unspecified) | inconclusive: 23.1 µM [rising, partial curve, poor fit] |  | 
Cc1ccc(C(C#N)c2ccc3c(C(F)(F)F)cc(C(F)(F)F)nc3n2)cc1 (stereo unspecified) | inconclusive: 1.03 µM [activator, partial curve] |  | 
Cc1ccc([N+](=O)[O-])cc1S(=O)(=O)Nc1ccccn1 |  | inconclusive: -7.9% | 
O=C(O)CC1(CC(=O)NCc2ccc(C(F)(F)F)cc2)CCCCC1 |  | inconclusive: 8.35% | 
CCN(CC)C(=O)COC(=O)c1cc(-c2ccc(OC)cc2)nc2ccccc12 | inconclusive: 0.461 µM [activator, full curve] |  | 
COc1ccc(-c2cc(C(F)(F)F)nc(NCc3cccs3)n2)cc1 | inconclusive: 9.2 µM [activator, partial curve] |  | 
Cc1cc(NC(=O)Nc2ccccc2Cl)no1 | inconclusive: 0.092 µM [falling, full curve, poor fit] |  | 
C=CCN1C(=O)C(O)(CC(=O)c2ccc(N)cc2)c2ccccc21 (stereo unspecified) |  | inconclusive: 55.5% | 
Cc1ccc(OCCNc2cc(N3CCN(CCO)CC3)ccc2[N+](=O)[O-])cc1C |  | inconclusive: -6.69% | 
C=CCC1Cc2c(Br)cccc2C(CC=C)N1 (stereo unspecified) |  | inconclusive: 22.5% | 

Reference: PubChem BioAssay AID2685 (National Center for Advancing Translational Sciences (NCATS), 2010)
